Some of these results come from one statement about several compounds together.
Test: Plasma concentration of adalimumab or ustekinumab in implanted Nude mice (human IgG Fc ELISA)
Type: in vivo, mouse
Details: nPET-PBT/PET/nPU cell chamber device
Protocol: To assess the ability to deliver biologics into the blood flow and the applicability of the devices to other biologics, secretion of adalimumab or ustekinumab from the nPET-PBT/PET/nPU cell chamber device described in Example 10 was assessed in vivo. The nPET-PBT/PET/nPU cell chamber device was seeded with ARPE19 cells stably expressing adalimumab or ustekinumab (see also Example 8) and subcutaneously implanted in Nude mice. Mice were assessed by blood collection over the course of >100 days to measure the plasma concentration of each antibody over time. Human IgG concentration in plasma was tested by an ELISA assay which detected the human IgG Fc region. […] (Day 1-Day 60: N=5, Day 61-Day 81: N=4, Day 82-92: N=3, Day 93-Day 108: N=2). Similarly, the average ustekinumab plasma concentration reached a plateau of approximately 60-110 μg/mL around Day 20 and maintained a steady-state over 80 days (N=5).

With adalimumab the duration of steady-state was “over 80 days”.
